Some of the results follow.
Columns and labels:
Experiment in all cases: log2 fold change, soluble protein after heating vs DMSO (PISA); higher = thermal stabilisation; K562 lysate, 10 uM; active = over 0.2 and 3.5 SD of the protein, either way, in both replicates (recomputed)
[1] = compound: Cc1sc2c(c1C)C(c1ccc(Cl)cc1)=N[C@@H](CC(=O)OC(C)(C)C)c1nnc(C)n1-2
Outline: (§1)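 Dounce homogenisation of K562 pellets in PBS pH 7.4 with 1 mM MgCl2 produced a crude extract, used at 1 mg/mL protein. Exposure to 10 μM compound lasted 30 min, and aliquots were then heated for 3 min across 48°C-58°C, pooled and brought to 0.5% NP-40 at 4°C. The supernatant after 21,000xg for 90 min was quantified by TMTpro 16plex LC-MS/MS with channel sums equalised. Duplicate values are given as log-two fold change in thermal stability relative to solvent controls.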

By UniProt entry, the sequences of proteins in these tests, tags left out. Where a name states a change or a piece, a line headed by the entry shows the natural chain unless it says otherwise.
UniProt P08590, whole entry, looked up: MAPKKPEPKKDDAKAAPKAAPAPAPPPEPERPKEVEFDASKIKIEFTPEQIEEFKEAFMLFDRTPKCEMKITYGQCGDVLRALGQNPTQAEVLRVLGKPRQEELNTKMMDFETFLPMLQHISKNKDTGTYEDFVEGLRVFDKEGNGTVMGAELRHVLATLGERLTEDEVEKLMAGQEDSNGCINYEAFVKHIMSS
UniProt Q6NZ67, whole entry, looked up: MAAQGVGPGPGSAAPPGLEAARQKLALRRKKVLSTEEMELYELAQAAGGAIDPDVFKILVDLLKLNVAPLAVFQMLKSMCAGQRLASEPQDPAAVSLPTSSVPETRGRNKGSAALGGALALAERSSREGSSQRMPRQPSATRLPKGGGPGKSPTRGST
UniProt Q969V3: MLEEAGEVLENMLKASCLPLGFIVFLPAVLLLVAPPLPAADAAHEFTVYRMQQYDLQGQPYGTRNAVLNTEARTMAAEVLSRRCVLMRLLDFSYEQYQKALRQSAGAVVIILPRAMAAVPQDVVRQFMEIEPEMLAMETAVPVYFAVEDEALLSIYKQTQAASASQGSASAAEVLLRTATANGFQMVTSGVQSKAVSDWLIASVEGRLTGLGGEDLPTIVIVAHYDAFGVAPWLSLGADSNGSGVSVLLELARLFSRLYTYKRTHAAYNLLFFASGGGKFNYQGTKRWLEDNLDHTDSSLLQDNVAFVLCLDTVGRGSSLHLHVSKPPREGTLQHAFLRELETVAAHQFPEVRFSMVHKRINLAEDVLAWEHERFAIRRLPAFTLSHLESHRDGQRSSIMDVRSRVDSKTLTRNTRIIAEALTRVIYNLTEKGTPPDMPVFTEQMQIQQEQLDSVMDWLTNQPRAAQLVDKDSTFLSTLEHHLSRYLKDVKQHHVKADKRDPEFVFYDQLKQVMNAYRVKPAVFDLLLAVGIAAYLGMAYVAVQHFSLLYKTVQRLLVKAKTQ
UniProt Q4G0N4: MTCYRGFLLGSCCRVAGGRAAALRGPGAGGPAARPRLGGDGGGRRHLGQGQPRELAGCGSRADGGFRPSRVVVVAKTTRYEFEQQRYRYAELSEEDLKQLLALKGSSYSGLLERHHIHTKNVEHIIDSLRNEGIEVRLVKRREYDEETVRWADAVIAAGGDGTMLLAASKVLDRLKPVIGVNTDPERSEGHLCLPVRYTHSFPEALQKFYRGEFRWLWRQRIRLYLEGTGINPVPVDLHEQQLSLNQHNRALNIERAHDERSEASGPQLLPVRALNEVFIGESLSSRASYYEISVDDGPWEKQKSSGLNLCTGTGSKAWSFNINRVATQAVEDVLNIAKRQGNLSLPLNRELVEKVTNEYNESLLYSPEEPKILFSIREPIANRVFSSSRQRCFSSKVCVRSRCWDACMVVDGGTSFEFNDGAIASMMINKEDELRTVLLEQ
UniProt P10244: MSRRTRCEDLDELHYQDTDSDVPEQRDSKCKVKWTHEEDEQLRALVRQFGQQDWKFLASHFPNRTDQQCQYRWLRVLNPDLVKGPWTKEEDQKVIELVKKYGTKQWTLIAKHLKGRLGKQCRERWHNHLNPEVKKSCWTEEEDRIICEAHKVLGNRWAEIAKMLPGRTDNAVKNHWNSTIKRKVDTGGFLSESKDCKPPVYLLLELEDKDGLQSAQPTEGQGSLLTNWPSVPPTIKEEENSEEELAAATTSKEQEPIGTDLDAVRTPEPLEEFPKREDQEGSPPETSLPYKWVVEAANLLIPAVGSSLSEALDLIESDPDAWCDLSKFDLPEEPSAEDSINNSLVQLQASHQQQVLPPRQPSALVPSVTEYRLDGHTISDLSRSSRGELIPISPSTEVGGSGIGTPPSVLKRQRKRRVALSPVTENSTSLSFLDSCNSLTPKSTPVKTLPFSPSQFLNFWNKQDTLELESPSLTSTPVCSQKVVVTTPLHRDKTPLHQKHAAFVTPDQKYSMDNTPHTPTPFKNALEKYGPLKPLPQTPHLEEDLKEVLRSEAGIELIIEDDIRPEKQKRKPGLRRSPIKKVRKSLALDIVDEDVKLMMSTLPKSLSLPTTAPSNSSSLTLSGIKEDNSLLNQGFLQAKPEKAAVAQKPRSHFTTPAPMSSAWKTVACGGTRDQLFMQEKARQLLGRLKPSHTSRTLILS
UniProt Q15788: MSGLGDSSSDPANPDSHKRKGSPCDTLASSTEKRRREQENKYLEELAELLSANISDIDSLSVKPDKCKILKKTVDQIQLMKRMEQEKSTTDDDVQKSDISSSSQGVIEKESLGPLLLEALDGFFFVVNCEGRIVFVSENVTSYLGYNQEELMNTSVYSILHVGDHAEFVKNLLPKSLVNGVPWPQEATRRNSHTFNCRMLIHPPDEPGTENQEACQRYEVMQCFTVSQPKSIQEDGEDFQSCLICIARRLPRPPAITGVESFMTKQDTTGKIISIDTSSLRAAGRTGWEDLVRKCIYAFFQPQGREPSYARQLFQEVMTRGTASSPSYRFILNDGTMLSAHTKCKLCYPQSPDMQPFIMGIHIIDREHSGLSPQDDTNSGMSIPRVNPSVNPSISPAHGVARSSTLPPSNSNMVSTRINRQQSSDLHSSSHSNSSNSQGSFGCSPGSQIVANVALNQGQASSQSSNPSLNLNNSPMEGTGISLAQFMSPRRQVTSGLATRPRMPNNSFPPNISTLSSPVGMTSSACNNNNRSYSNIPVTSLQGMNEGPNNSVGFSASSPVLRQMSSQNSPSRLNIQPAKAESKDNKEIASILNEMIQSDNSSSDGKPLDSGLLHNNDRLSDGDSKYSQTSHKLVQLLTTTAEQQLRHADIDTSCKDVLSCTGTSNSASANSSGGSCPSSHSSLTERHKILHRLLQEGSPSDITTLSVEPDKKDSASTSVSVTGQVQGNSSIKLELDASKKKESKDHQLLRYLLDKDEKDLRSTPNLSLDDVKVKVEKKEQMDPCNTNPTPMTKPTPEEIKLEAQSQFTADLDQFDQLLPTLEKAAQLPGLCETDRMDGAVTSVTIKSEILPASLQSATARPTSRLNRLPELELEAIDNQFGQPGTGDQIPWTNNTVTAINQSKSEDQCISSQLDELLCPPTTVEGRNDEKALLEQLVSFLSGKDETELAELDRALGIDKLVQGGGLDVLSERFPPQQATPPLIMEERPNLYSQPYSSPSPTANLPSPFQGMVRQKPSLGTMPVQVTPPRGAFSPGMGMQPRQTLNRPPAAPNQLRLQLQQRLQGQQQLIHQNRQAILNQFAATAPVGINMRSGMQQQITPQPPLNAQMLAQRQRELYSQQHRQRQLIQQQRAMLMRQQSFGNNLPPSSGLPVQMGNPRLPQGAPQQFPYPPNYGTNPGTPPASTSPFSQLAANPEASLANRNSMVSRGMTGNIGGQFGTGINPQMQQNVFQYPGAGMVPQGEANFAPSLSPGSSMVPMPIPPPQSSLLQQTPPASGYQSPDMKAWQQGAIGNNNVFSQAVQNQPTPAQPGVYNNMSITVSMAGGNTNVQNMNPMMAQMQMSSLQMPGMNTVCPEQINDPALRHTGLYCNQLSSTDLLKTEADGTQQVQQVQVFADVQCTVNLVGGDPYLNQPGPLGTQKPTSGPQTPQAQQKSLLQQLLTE
UniProt P49321, whole entry, looked up: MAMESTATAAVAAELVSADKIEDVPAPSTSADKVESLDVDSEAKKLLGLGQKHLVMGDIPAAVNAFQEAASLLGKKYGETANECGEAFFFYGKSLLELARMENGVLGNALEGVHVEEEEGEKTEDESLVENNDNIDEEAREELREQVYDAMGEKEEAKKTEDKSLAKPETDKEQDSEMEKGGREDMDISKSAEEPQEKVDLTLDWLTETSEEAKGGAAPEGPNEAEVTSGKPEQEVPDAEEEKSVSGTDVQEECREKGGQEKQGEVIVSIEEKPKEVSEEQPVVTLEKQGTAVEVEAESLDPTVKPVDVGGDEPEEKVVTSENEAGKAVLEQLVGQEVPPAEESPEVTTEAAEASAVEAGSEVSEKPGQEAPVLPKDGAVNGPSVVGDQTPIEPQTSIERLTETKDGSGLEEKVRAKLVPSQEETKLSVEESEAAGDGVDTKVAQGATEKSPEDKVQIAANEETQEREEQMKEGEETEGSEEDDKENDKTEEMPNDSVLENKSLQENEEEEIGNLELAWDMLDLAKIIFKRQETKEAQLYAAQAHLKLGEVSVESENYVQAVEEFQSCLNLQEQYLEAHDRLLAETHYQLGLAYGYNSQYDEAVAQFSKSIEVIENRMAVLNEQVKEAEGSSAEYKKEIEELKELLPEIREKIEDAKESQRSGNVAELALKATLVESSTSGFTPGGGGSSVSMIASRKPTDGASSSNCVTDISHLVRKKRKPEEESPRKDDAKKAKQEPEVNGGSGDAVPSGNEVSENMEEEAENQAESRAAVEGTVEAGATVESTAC
UniProt P60660, whole entry, looked up: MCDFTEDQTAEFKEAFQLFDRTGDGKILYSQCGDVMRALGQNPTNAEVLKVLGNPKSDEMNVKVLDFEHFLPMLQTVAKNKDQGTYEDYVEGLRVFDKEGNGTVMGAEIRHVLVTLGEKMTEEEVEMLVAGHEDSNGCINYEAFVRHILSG
UniProt E9PAV3, whole entry, looked up: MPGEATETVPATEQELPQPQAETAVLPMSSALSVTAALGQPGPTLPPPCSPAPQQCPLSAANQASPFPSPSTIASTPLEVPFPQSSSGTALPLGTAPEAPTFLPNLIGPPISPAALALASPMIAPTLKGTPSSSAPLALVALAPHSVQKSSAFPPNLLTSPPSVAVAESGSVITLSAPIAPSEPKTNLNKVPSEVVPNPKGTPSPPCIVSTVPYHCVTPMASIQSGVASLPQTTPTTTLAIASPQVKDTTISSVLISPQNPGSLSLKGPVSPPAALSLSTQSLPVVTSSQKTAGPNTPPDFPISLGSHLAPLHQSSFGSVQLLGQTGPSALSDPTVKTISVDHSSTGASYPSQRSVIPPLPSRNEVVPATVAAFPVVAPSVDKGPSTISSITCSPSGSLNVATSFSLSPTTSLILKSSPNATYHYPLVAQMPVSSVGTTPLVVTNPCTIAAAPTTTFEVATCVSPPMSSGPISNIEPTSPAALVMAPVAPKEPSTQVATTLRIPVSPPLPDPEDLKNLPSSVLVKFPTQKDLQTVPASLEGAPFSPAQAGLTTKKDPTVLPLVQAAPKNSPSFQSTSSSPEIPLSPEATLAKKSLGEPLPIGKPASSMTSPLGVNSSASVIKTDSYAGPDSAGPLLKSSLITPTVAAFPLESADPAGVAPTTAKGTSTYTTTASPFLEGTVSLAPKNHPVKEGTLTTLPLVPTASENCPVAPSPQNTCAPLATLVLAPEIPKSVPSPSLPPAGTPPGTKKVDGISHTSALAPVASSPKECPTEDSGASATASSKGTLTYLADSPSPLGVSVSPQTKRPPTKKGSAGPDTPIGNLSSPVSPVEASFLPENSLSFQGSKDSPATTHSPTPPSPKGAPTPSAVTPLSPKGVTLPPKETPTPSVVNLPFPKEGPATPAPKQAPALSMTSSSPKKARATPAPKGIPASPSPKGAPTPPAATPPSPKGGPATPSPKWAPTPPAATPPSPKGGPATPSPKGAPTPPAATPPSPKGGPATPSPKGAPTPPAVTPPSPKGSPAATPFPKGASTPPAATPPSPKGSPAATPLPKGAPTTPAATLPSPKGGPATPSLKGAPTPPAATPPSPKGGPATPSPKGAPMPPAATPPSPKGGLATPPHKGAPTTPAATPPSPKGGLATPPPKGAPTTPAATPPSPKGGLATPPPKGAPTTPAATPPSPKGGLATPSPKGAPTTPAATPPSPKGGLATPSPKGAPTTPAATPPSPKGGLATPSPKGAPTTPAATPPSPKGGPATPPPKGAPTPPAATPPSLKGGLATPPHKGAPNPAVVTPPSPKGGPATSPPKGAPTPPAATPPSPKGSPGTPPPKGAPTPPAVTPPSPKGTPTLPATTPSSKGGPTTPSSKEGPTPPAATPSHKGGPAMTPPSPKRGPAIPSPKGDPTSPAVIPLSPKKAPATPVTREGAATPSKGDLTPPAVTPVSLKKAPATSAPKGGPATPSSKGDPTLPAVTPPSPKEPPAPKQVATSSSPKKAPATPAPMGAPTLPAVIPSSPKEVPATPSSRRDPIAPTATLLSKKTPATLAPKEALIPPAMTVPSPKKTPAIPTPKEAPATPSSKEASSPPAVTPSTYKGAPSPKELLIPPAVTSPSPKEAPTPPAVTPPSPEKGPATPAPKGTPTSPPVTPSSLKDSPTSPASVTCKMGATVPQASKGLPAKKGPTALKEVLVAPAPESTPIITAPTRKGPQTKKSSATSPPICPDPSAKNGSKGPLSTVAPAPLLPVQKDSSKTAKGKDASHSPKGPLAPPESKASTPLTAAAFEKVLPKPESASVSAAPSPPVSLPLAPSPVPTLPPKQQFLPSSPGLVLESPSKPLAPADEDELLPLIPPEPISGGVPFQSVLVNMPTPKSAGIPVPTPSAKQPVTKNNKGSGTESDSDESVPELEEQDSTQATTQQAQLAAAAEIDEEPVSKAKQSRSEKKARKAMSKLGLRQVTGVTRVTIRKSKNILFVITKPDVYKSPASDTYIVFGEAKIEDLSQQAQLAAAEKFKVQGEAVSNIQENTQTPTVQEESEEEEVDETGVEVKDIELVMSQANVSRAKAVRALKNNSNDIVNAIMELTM

[2] = compound: c1ccc([C@@H]2C[C@H]2NC2CCNCC2)cc1
Outline: as §1

[3] = compound: C1=CC=C(C=C1)[C@H](COC2=CC3=C(C=C2)NC(=O)N3)NC(=O)C4=CC=CN(C4=O)CC5=CC(=C(C=C5)F)F
Outline: as §1

[4] = compound: CC1=C(SC2=C1C(=N[C@H](C3=NN=C(N32)C)CC(=O)N)C4=CC=C(C=C4)Cl)C
Outline: as §1

[5] = compound: CC1=C2C(=CC=C1)N=C(N(C2=O)C3=CC=CC=C3C)CN4C=NC5=C(N=CN=C54)N
Outline: as §1

Target	log2 fold change [1]	log2 fold change [2]	log2 fold change [3]	log2 fold change [4]	log2 fold change [5]
MUC5B (UniProt Q9HC84)	inactive: -0.242	inactive: -0.012	–	–	–
MYL3 (UniProt P08590)	–	inactive: 0.011	inactive: 0.085	inactive: -0.022	inactive: -0.035
NAP1L4 (UniProt C9JZI7)	inactive: -0.061	–	–	–	–
MXRA7 (UniProt P84157)	inactive: -0.106	inactive: -0.062	–	–	inactive: -0.05
MZT2B (UniProt Q6NZ67)	–	inactive: 0.09	inactive: 0.051	inactive: 0.024	inactive: -0.078
NAV2 (UniProt Q8IVL1)	–	inactive: 0	inactive: -0.18	inactive: 0.145	–
NCLN isoform 2 (UniProt Q969V3)	–	–	–	–	inactive: -0.063
NADK2 (UniProt Q4G0N4)	inactive: 0.045	inactive: -0.012	inactive: 0.057	inactive: 0.007	inactive: -0.006
MYL12A (UniProt P19105)	–	inactive: 0.14	–	–	–
NCCRP1 (UniProt Q6ZVX7)	inactive: 0.033	inactive: 0	inactive: -0.3	inactive: 0.14	–
MYNN (UniProt Q9NPC7)	inactive: 0.16	–	–	–	inactive: -0.027
NAT14 (UniProt Q8WUY8)	inactive: -0.061	inactive: 0.113	–	–	inactive: -0.025
NAB1 (UniProt Q13506)	inactive: -0.018	inactive: -0.02	inactive: 0.016	inactive: -0.069	–
NAMPT (UniProt C9JF35)	–	inactive: -0.09	–	–	–
MYBL2 (UniProt P10244)	inactive: 0.047	active: 0.326	–	–	inactive: -0.01
MYLK (UniProt Q15746)	–	inactive: 0.123	inactive: -0.038	inactive: -0.161	inactive: -0.008
MYC isoform 2 (UniProt P01106)	–	inactive: -0.022	–	–	–
NCF4 (UniProt Q15080)	–	inactive: -0.001	inactive: 0.055	inactive: -0.028	–
NCOA1 isoform 2 (UniProt Q15788)	inactive: 0.015	inactive: 0.105	–	–	inactive: -0.069
MUS81 (UniProt Q96NY9)	inactive: -0.032	inactive: 0	inactive: 0.131	inactive: 0.191	–
NASP isoform 2 (UniProt P49321)	–	inactive: 0.585	inactive: 0.146	inactive: -0.332	–
NCOA7 isoform 2 (UniProt Q8NI08)	inactive: -0.102	–	–	–	–
NAMPT (UniProt P43490)	inactive: 0.003	inactive: 0.003	inactive: 0.013	inactive: 0.009	inactive: -0.033
MYH2 (UniProt Q9UKX2)	inactive: -0.222	–	inactive: -1.29	inactive: 0.432	–
MYL6 isoform 2 (UniProt P60660)	inactive: 0.031	inactive: -0.162	–	–	inactive: 0.279
MYH3 (UniProt P11055)	inactive: 0.096	inactive: 0.031	–	–	inactive: -0.068
NACA (UniProt E9PAV3)	inactive: -0.066	inactive: -0.079	inactive: 0.054	inactive: 0.002	inactive: 0.004

Copied from the list:
MYL12A (UniProt P19105) – log2 fold change [2]: inactive: 0.14
NAMPT (UniProt P43490) – log2 fold change [3]: inactive: 0.013
